Test results: publication PMC11935212

The chains behind the UniProt entries cited, without tags or fusion partners. Residues count along the entry.
UniProt Q15116, 25-170: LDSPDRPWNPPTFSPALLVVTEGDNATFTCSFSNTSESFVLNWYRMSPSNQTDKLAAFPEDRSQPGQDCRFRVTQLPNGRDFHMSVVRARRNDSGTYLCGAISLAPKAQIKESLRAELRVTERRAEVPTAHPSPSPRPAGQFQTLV

Assays:
[1] = biological target: sPD-L1 (soluble programmed death ligand 1) (UniProt Q9NZQ7); assay: binding assay; conditions: dithiol/thiol; chemically modified on both ends (further details not in the material); DPV in 0.1 M PBS with 5 mM ferricyanide (PBS pH 7.2), aptamer on Au NIs/SPCE with MCH and BSA; temperature not given; commercial protein; single-stranded DNA
[2] = biological target: PD1 (programmed cell death protein 1) (UniProt Q15116); assay: delta current about 5-fold smaller than for sPD-L1; conditions: dithiol/thiol; chemically modified on both ends (further details not in the material); DPV in 0.1 M PBS with 5 mM ferricyanide (PBS pH 7.2), aptamer on Au NIs/SPCE with MCH and BSA; temperature not given; single-stranded DNA
insulin = assay: delta current about 5-fold smaller than for sPD-L1; conditions: dithiol/thiol; chemically modified on both ends (further details not in the material); DPV in 0.1 M PBS with 5 mM ferricyanide (PBS pH 7.2), aptamer on Au NIs/SPCE with MCH and BSA; temperature not given; single-stranded DNA
[3] = biological target: sPD-L1 (soluble programmed death ligand 1) (UniProt Q9NZQ7); assay: aptamer on Au NIs/SPCE, MCH and BSA passivated; sensor LOD 0.76 aM (not a Kd); conditions: dithiol/thiol, chemically modified on both ends (further details not in the material), DPV in 0.1 M PBS with 5 mM ferricyanide (PBS pH 7.2), temperature not given, commercial protein, single-stranded DNA

For “AAGACGGACCAGCCTTGCCGCAAGACGGACCAGGGATT [sPD-L1 DNA aptamer (38 nt)]”, the Kd [1] was 51.3 nM, the binding result [2] was “binds more weakly” and the binding result (insulin) was “binds more weakly”. “AAGACGGACCAGCCTTGCCGCAAGACGGACCAGGGATT [sPD-L1 DNA aptamer (38 nt)]”: binds [3].

Construct, isoform or probe ends are uncertain for at least one entry. For some of these results: A weaker result is weaker than the reference pair of the same experiment.
